Results are given in words; binding and its absence hold for the method and conditions named. Binding seen in cells or lysates may run through a third protein. A yes stands for co-enrichment or nearness to the bait. Other partners may have been found. For some of these results: A no says only that the protein was not detected with the bait.
T1: DNA-directed RNA polymerase subunit Rpo5 (Haloferax volcanii) (UniProt D4GZX3)
T1 sequence: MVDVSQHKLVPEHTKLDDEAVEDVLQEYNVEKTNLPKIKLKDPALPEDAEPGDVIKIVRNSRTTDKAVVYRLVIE

T2: DNA-directed RNA polymerase subunit Rpo11 (Haloferax volcanii) (UniProt D4GVL8)
T2 sequence: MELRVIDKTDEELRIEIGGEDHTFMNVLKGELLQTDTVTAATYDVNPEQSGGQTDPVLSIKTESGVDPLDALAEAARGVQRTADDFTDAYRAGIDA

T3: DNA-directed RNA polymerase subunit Rpo3 (Haloferax volcanii) (UniProt D4GWY4)
T3 sequence: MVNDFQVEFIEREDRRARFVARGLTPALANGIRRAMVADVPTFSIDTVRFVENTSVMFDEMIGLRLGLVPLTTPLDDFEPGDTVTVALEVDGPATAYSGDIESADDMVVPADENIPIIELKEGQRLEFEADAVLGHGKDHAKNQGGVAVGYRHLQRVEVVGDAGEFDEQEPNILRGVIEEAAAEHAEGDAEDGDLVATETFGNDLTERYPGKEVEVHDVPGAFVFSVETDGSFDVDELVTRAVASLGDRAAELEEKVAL

T4: DNA-directed RNA polymerase subunit Rpo1C (Haloferax volcanii) (UniProt D4GZX7)
T4 sequence: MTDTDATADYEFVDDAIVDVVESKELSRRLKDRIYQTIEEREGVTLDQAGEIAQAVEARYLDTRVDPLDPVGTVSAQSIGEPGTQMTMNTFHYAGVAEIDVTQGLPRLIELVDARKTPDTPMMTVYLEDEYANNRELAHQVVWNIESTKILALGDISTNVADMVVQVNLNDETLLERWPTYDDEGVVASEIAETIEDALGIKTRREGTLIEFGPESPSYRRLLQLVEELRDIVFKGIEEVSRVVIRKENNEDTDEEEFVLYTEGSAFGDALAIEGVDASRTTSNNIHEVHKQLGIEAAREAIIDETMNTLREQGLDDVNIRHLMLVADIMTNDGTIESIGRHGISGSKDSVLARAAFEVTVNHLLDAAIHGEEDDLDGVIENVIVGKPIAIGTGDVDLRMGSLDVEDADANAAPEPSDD

T5: DNA-directed RNA polymerase subunit Rpo1N (Haloferax volcanii) (UniProt D4GZX6)
T5 sequence: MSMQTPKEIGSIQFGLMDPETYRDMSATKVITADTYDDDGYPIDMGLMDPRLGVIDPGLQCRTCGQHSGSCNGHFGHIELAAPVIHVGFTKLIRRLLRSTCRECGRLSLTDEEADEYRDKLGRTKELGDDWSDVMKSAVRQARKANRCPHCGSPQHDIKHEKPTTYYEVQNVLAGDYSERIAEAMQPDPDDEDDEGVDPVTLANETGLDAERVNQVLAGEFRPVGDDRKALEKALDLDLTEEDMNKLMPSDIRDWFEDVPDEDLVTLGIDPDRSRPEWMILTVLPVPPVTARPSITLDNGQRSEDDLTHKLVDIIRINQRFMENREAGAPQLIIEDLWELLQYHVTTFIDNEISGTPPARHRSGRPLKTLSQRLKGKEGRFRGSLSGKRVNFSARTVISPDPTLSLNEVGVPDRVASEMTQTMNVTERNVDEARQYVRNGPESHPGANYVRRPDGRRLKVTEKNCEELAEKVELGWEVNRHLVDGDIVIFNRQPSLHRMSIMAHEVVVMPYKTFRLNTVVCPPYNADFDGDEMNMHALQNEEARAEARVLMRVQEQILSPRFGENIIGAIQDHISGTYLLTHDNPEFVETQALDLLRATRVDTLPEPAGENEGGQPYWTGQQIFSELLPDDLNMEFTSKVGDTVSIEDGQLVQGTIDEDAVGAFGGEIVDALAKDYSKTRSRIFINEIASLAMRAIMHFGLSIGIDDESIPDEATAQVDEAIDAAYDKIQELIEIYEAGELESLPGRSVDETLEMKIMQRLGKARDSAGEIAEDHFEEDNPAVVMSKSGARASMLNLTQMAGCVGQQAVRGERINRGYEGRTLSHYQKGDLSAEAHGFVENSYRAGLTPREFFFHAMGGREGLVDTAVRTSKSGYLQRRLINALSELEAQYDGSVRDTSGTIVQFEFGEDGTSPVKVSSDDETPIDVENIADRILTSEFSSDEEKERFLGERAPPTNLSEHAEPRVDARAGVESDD

T6: DNA-directed RNA polymerase subunit Rpo2N (Haloferax volcanii) (UniProt D4GZX4)
T6 sequence: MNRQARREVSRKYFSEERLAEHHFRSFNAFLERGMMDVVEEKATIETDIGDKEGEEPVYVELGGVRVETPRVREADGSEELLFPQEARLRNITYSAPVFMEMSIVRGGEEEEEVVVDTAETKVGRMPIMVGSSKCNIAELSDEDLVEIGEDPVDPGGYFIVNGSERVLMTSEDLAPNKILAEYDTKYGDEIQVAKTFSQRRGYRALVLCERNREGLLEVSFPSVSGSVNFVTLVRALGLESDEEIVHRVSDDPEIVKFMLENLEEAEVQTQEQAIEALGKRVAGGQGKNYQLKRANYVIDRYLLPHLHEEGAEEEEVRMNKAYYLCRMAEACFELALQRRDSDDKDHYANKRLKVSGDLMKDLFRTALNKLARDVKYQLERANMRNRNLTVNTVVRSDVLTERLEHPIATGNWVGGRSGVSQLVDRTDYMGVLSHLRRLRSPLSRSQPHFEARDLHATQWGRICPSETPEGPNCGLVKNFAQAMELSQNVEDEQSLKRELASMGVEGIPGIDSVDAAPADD

T7: translation initiation factor aIF2 beta subunit / probable RNA-binding protein (aIF2β-2) (Haloferax volcanii) (UniProt D4GVV8)
T7 sequence: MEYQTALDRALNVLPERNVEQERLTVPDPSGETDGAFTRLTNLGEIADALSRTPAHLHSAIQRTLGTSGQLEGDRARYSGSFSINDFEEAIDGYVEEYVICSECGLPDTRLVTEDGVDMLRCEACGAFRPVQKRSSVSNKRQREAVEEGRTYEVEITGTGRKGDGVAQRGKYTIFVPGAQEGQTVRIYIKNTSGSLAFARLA

T8: translation initiation factor aIF2 alpha subunit (Haloferax volcanii) (UniProt D4GT46)
T8 sequence: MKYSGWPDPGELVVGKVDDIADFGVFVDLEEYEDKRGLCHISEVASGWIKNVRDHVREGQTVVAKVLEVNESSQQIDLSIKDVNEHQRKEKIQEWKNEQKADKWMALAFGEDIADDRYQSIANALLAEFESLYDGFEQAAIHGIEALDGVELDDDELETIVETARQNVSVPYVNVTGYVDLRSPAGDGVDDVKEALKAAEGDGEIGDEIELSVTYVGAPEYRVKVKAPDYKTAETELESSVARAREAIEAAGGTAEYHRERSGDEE


Columns and labels:
Assay in all cases: affinity purification with mass spectrometry; N-His6 bait overproduced in H. volcanii; cytoplasmic extract on nickel chelating sepharose at room temperature in 2.1 M NaCl, 20 mM HEPES, 20 mM imidazole; four washes with 30 mM imidazole, elution with 700 mM imidazole; no RNase step, no cross-linking; co-isolated proteins identified by LC-MS/MS; three biological replicates; proteins found in the empty-vector or DHFR controls removed
[1] = target: T1, DNA-directed RNA polymerase subunit Rpo5 (Haloferax volcanii)
[2] = target: T2, DNA-directed RNA polymerase subunit Rpo11 (Haloferax volcanii)
[3] = target: T3, DNA-directed RNA polymerase subunit Rpo3 (Haloferax volcanii)
[4] = target: T4, DNA-directed RNA polymerase subunit Rpo1C (Haloferax volcanii)
[5] = target: T5, DNA-directed RNA polymerase subunit Rpo1N (Haloferax volcanii)
[6] = target: T6, DNA-directed RNA polymerase subunit Rpo2N (Haloferax volcanii)
[7] = target: T7, translation initiation factor aIF2 beta subunit / probable RNA-binding protein (aIF2β-2) (Haloferax volcanii)
[8] = target: T8, translation initiation factor aIF2 alpha subunit (Haloferax volcanii)

| Binder | binding [1] | binding [2] | binding [3] | binding [4] | binding [5] | binding [6] | binding [7] | binding [8] |
| --- | --- | --- | --- | --- | --- | --- | --- | --- |
| DNA-directed RNA polymerase subunit Rpo2N (protein, UniProt D4GZX4 1-521) MNRQARREVSRKYFSEERLAEHHFRSFNAFLERGMMDVVEEKATIETDIGDKEGEEPVYVELGGVRVETPRVREADGSEELLFPQEARLRNITYSAPVFMEMSIVRGGEEEEEVVVDTAETKVGRMPIMVGSSKCNIAELSDEDLVEIGEDPVDPGGYFIVNGSERVLMTSEDLAPNKILAEYDTKYGDEIQVAKTFSQRRGYRALVLCERNREGLLEVSFPSVSGSVNFVTLVRALGLESDEEIVHRVSDDPEIVKFMLENLEEAEVQTQEQAIEALGKRVAGGQGKNYQLKRANYVIDRYLLPHLHEEGAEEEEVRMNKAYYLCRMAEACFELALQRRDSDDKDHYANKRLKVSGDLMKDLFRTALNKLARDVKYQLERANMRNRNLTVNTVVRSDVLTERLEHPIATGNWVGGRSGVSQLVDRTDYMGVLSHLRRLRSPLSRSQPHFEARDLHATQWGRICPSETPEGPNCGLVKNFAQAMELSQNVEDEQSLKRELASMGVEGIPGIDSVDAAPADD | binds | binds | binds | binds | binds | – | – | – |
| DNA-directed RNA polymerase subunit Rpo5 (protein, UniProt D4GZX3 1-75) MVDVSQHKLVPEHTKLDDEAVEDVLQEYNVEKTNLPKIKLKDPALPEDAEPGDVIKIVRNSRTTDKAVVYRLVIE | – | binds | binds | binds | binds | binds | – | – |
| RNA polymerase auxiliary subunit RpoK (protein, UniProt D4GWX4 1-58) MMQRYNRYEKARILGARALQVSYGAPVLVDSEQTEPILIAAEEYDAGVLPFTVKREGK | no binding | no binding | no binding | no binding | no binding | no binding | – | – |

The remaining lines, values ahead:

| binding [1] | binding [2] | binding [3] | binding [4] | binding [5] | binding [6] | binding [7] | binding [8] | Binder |
| --- | --- | --- | --- | --- | --- | --- | --- | --- |
| – | – | – | – | – | – | binds | binds | translation initiation factor aIF2 gamma subunit (protein, UniProt D4GTD4 1-411) MVTKNPQQPEVNIGLVGHVDHGKTTLVQALSGSWTDQHSEEMKRGISIRLGYADATFRQIPGVDAPECYTVEEETEDGEETDVLRTVSFVDAPGHETLMATMLSGAAIMDGAILLVSATEDVPQAQTAEHLMALDIIGIENIVIAQNKVDLVDRERAVDNYEQIQEFVEGTVAEDAPIVPISAQQEVNLDLLIEAIEEEIPTPDRDETEDSQMYVARSFDINRPGTTWDGLAGGVIGGSVVAGKLEAGDELELRPGREVDEEGQTEWRSITTEIRSLQAGGNMVDEVRPGGLCGVGTGLDPSFTKGDALAGQVAGEPGTLPPTREQFTMDVELLDRVVGDEEGEGIDEISTGEPLMLTVGTATTVGAVTSARSGEAEVSLKRPVCAEEGAKIAINRRVGARWRLIGIGTLK |
| – | – | – | – | – | – | no binding | – | translation initiation factor aIF2 beta subunit (aIF2β-1) (protein, UniProt D4GZP2 1-135) MDYDDQLDRALSASPDVAEGDDRFSVPEPTVRQEGNVTVYENFAATHDRLAREATHVLKFFQTELGTSAQIDDRGRARFTGEFRQRRIADALDEYVESFVLCSECGSPDTKLTSQRGADVLKCDACGALSAIPDL |

Reference: publication PMC8576121
